Source: patent US8580478B2, “Latent acids and their use” (BASF SE, priority 2010, dated 2013)

Experiment: Photosensitivity (Dose to Clear) in ArF model positive tone resist formulation
Conditions: ArF laser exposure; 2 parts PAG per 100 parts binder polymer in PGMEA; 120 nm film; post exposure bake 120° C. 1 min; 1 min development; smaller dose = more sensitive

Compound | Dose to Clear (E0) [mJ/cm^2]
O=C(CC1CC2CCC1C2)OCC(F)C(F)(F)S(=O)(=O)O (centres unmarked) [Example 3] | 1.8
COC(C)CCOC(=O)OCC(F)C(F)(F)S(=O)(=O)O (centres unmarked) [Example 10] | 2.1
O=S(=O)(O)C(F)(F)C(F)CO (centres unmarked) [Example 9] | 2.1

Experiment: Mobility of acid generated from PAG, bilayer method (thickness loss)
Conditions: thickness loss of bilayer after exposure, post-exposure bake 110° C. 1 min and development, normalized with TPS nf; smaller number = lower acid mobility

Compound | Normalised mobility
CC12CCC(C(=O)OCC(F)C(F)(F)S(=O)(=O)O)(OC1=O)C2(C)C (centres unmarked) [Example 32] | 0.41
O=C(OCC(F)C(F)(F)S(=O)(=O)O)C1C2CC3OC(=O)C1C3C2 (centres unmarked) [Example 6] | 0.30
O=C1CCC(C(=O)OCC(F)C(F)(F)S(=O)(=O)O)N1 (centres unmarked) [Example 8] | 0.21
O=C(OCC(F)C(F)(F)S(=O)(=O)O)OC1C2CC3C(=O)OC1C3C2 (centres unmarked) [Example 11] | 0.41
CS(=O)(=O)N1CCN(C(=O)OCC(F)C(F)(F)S(=O)(=O)O)C1=O (centres unmarked) [Example 36] | 0.25
CC(=O)N1CCN(C(=O)OCC(F)C(F)(F)S(=O)(=O)O)C1=O (centres unmarked) [Example 21] | 0.40
CCOC(=O)NC1CCC(CC2CCC(NC(=O)OCC(F)C(F)(F)S(=O)(=O)O)CC2)CC1 (centres unmarked) [Example 28] | 0.36
CS(=O)(=O)N1CCN(C(=O)OCC(F)C(F)(F)S(=O)(=O)O)C1=O (centres unmarked) [Example 41] | 0.28
CC12CCC(C(=O)OCC(F)C(F)(F)S(=O)(=O)O)(OC1=O)C2(C)C (centres unmarked) [Example 4] | 0.40
CCCS(=O)(=O)N1CCN(C(=O)OCC(F)C(F)(F)S(=O)(=O)O)C1=O (centres unmarked) [Example 24] | 0.34
CCCC(=O)N1CCN(C(=O)OCC(F)C(F)(F)S(=O)(=O)O)C1=O (centres unmarked) [Example 22] | 0.40
